This is one part of the list. Shown are side measurements of this screen, not its main read-out; they come without a call. The list favours compounds with an active or inconclusive main result. The note in brackets gives the kind of curve behind each potency; many fits are weak.
Assay: qHTS Assay for Lipid Storage Modulators in Drosophila S3 Cells;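 as to cell number change: cells counted by Cell Tracker Red CMTPX staining in the red channel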
Details: BODIPY lipid droplet fluorescence, 18-24 h; for cell number change: measured here: cell count max response, cells fed with added oleic acid
Summary of the method: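 Drosophila S3 cells got compounds at several concentrations plus oleic acid (400 uM solution). Laser-scanning cytometry with 488 nm excitation read lipid droplets at 500-530 nm and cells at 575-640 nm. Percent activity was relative to 20 uM Triacsin C.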

[1] = measured here: lipid fluorescence (Fed channel) AC50, cells fed with added oleic acid
[2] = measured here: cell number channel AC50, cells fed with added oleic acid

CCOC(=O)/C(C(=Nc1ccccc1)Nc1ccccc1)=C(\C)O
cell number change: 0.246%
AC50 [1]: 0.411 µM [rising, full curve, poor fit]

COc1ccc(CC(=O)c2ccc(OC)c(OC)c2C)cc1OC
cell number change: 31.6%
AC50 [2]: 14.6 µM [rising, single point]
AC50 [1]: 29.1 µM [rising, single point]

CC(=O)Nc1ccc(S(=O)(=O)NC2CC(=O)N(c3cccc(F)c3)C2)cc1 (stereo unspecified)
AC50 [2]: 2.59 µM [rising, single point]

Cc1nc(CNS(=O)(=O)c2ccc(Br)cc2)cs1
cell number change: -6.02%
AC50 [1]: 6.51 µM [falling, single point]

C[N+]1(CC(=O)Nc2ccccc2Cl)CCN(C(=O)c2cccs2)CC1
cell number change: -32.5%
AC50 [2]: 29.1 µM [falling, single point]
AC50 [1]: 1.46 µM [falling, full curve, poor fit]

Cc1cccc(Nc2nnc(SCC(=O)c3c(N)n(C4CC4)c(=O)[nH]c3=O)s2)c1C
cell number change: -2.14%
AC50 [1]: 13 µM [rising, partial curve]

COc1cc(/C=C(\C#N)c2nc3c(s2)CC(C)CC3)ccc1O (stereo unspecified)
cell number change: -27.9%
AC50 [1]: 23.1 µM [falling, single point]

C/C(Cn1cnc([N+](=O)[O-])n1)=N\NC(=O)c1ccc(Br)cc1
cell number change: 17.2%
AC50 [1]: 11.6 µM [rising, partial curve]

CN1CCN(C(=O)CN(Cc2ccccc2)S(C)(=O)=O)CC1
cell number change: 19%
AC50 [1]: 5.8 µM [falling, full curve]

Cc1nn2cc(-c3ccc(N)cc3)nc2s1
cell number change: -12.5%

CCc1nn2c(=O)c(S(=O)(=O)Nc3ccccc3)c(C)nc2s1
cell number change: -2.63%
AC50 [1]: 6.31 µM [falling, partial curve, poor fit]

O=C(CC(c1ccccc1)c1ccccc1O)NCCc1ccccc1 (stereo unspecified)
cell number change: 25.7%
AC50 [1]: 29.1 µM [rising, single point]

CCOC(=O)c1c(-c2ccc(C)cc2)csc1NC(=O)C1CC=CCC1C(=O)O (stereo unspecified)
cell number change: -1.79%

O=C(CSc1nnc(NC(=O)C2CCC2)s1)NC1CC1
cell number change: 0.415%
AC50 [1]: 0.82 µM [falling, single point]

C/C(CC(=O)Nc1cc(C)ccn1)=N\NC(=O)c1ccccc1C
cell number change: 28.5%
AC50 [1]: 29.1 µM [rising, single point]

CC(=O)c1c(C)nn(C(=O)c2cccs2)c1C
cell number change: -16.6%
AC50 [2]: 0.0517 µM [falling, full curve, poor fit]
AC50 [1]: 23.1 µM [rising, single point]

Cc1cccc(NC(=O)c2ccc3c(c2)CCN3S(C)(=O)=O)c1
cell number change: -7.97%
AC50 [1]: 32.6 µM [rising, single point]

CC(=O)c1ccc(NC(=O)c2ccc3nc(-c4ccco4)c(-c4ccco4)nc3c2)cc1
cell number change: -77.8%
AC50 [2]: 29.1 µM [falling, single point]
AC50 [1]: 6.51 µM [rising, single point]

O=C(CCc1ccccc1)NNC(=O)Nc1ccc(Br)cc1
cell number change: 4.91%
AC50 [2]: 0.13 µM [rising, full curve, poor fit]

CN(CC(=O)Nc1c(Cl)cccc1Cl)C(=O)Cn1[nH]c(=O)c2ccccc2c1=O
cell number change: -3.31%
AC50 [2]: 0.82 µM [falling, partial curve]

COc1ccc2c(CCNC(=O)c3ccco3)c[nH]c2c1
cell number change: -12.2%

COc1ccc2oc(=O)c(/C(C)=N/Nc3ccccc3)cc2c1
cell number change: -4.53%
AC50 [2]: 0.651 µM [falling, single point]
AC50 [1]: 0.411 µM [falling, partial curve, poor fit]

CCN1CCN(c2ccc(S(=O)(=O)N3CCCCC3)cc2NC(=O)c2cccc(Cl)c2)CC1
cell number change: 85.9%
AC50 [2]: 18.4 µM [rising, partial curve]

Cc1cc(OCC(=O)Nc2ccccc2N2CCOCC2)c(C(C)C)cc1Cl
cell number change: -0.859%
AC50 [1]: 1.46 µM [falling, partial curve]

COC(=O)C1(CC2CC(c3cccc(Br)c3)=NO2)CCN(C(=O)OC(C)(C)C)CC1 (stereo unspecified)
cell number change: 16.8%
AC50 [1]: 18.4 µM [rising, single point]

Cc1cc(C)cc(OCC(=O)NCc2cc(C)nc3ccccc23)c1
cell number change: 12%
AC50 [1]: 29.1 µM [rising, single point]

COc1ccc(C(=O)Nc2cc(C)nn2-c2ccc(F)cc2)cc1
cell number change: -19%
AC50 [1]: 0.651 µM [rising, single point]

O=C(NCc1ccccc1F)c1cccs1
cell number change: -3%
AC50 [1]: 10.3 µM [falling, partial curve]

CCc1nonc1NC(=O)c1oc2cc(C)c(C)cc2c1C
cell number change: 7.6%
AC50 [1]: 29.1 µM [rising, single point]

CN1CCN(S(=O)(=O)c2ccc(N3CCN(c4ccccc4Cl)CC3)nc2)CC1
cell number change: -7.65%
AC50 [1]: 6.51 µM [falling, single point]

CC1(C)N=C(c2ccc(Cl)cc2)C(=O)N1
cell number change: 3.77%
AC50 [2]: 0.58 µM [falling, full curve, poor fit]
AC50 [1]: 0.259 µM [falling, full curve]

CC(Sc1ccccc1)C(=O)NNC(=O)c1ccncc1 (stereo unspecified)
cell number change: 1.92%
AC50 [1]: 23.1 µM [rising, single point]

CCOC(=O)C(Cc1ccccc1)NC(=O)Cn1nnc(-c2ccc(SC)cc2)n1 (stereo unspecified)
cell number change: -15%

COCCNC(=O)c1cn(Cc2c(F)cccc2Cl)nn1
cell number change: -20.4%
AC50 [1]: 3.66 µM [falling, full curve, poor fit]

COc1ccc(S(=O)(=O)Nc2c(C)cccc2C)cc1-n1cnnn1
cell number change: 19.7%

O=C(NCCNS(=O)(=O)c1ccccc1)c1cc(OCC(F)(F)F)ccc1OCC(F)(F)F
cell number change: -29.5%

Fc1ccccc1CSc1nc2ccccc2[nH]1
cell number change: 107%
AC50 [2]: 16.4 µM [rising, partial curve]
AC50 [1]: 20.6 µM [rising, partial curve]

CCCCCOc1ccc(N2C(=O)C(C)CNC2=S)cc1 (stereo unspecified)
cell number change: -52.3%
AC50 [2]: 18.4 µM [falling, single point]
AC50 [1]: 29.1 µM [falling, single point]

C/C(=N/Nc1nc(-c2ccccc2)cc(-c2ccccc2)n1)c1ccc(N)cc1
cell number change: -23.4%
AC50 [1]: 18.4 µM [falling, single point]

COc1ccc(S(=O)(=O)Cc2ccc(C(=O)NCCc3ccc(S(N)(=O)=O)cc3)o2)cc1
cell number change: 33.8%
AC50 [2]: 29.1 µM [rising, single point]
AC50 [1]: 0.116 µM [rising, full curve, poor fit]

CCNc1nc(NCC)nc(N(CC)C(N)=S)n1
cell number change: 15.1%
AC50 [1]: 20.6 µM [rising, single point]

COc1ccc(C(=O)N/N=C(\C)CC(=O)Nc2ccccn2)cc1OC
cell number change: -3.95%
AC50 [1]: 3.55 µM [rising, full curve]

O=C(O)CN1CCNCC1
cell number change: -13.3%
AC50 [1]: 0.517 µM [falling, single point]

O=C(COc1ccccc1)Nc1c(C(=O)N2CCC(N3CCCCC3)CC2)oc2ccccc12
cell number change: -4.75%
AC50 [1]: 4.11 µM [rising, full curve, poor fit]

COC(=O)C1=CN(c2ccc(F)cc2)C=C(C(=O)OC)C1c1ccc([N+](=O)[O-])cc1
cell number change: 34.7%

CC1CCN(Cc2cc(=O)oc3ccc(C(C)C)cc23)CC1
cell number change: 51.4%
AC50 [2]: 7.31 µM [rising, partial curve, poor fit]
AC50 [1]: 29.1 µM [rising, single point]

O=C(CSCCO)Nc1cccc(C(F)(F)F)c1
cell number change: -1.01%
AC50 [1]: 0.326 µM [falling, full curve]

COc1ccccc1NC(=O)Cn1ncc2c1-c1ccccc1OC2
AC50 [1]: 1.84 µM [rising, partial curve]

Cc1nn(Cc2c(F)c(F)c(F)c(F)c2F)c(C)c1NC(=O)c1nn(C)cc1Br
cell number change: -2.31%
AC50 [1]: 0.092 µM [falling, full curve, poor fit]

O=C1C=C(c2cccc3c2sc2ccccc23)C[C@@H](c2ccc(F)cc2)C1
cell number change: 20.9%
AC50 [1]: 0.651 µM [rising, full curve, poor fit]

CCOC(=O)N/N=C/C=C/c1ccccc1
cell number change: -5.78%
AC50 [2]: 0.00517 µM [rising, full curve, poor fit]

CC(=O)c1ccc(NC(=S)Nc2cccc3ccccc23)cc1
cell number change: 0.495%
AC50 [1]: 29.1 µM [rising, single point]

CCOc1cc(CNc2ccc(S(N)(=O)=O)cc2)ccc1OCC(=O)NC(C)(C)C
cell number change: 1.44%
AC50 [2]: 6.31 µM [falling, single point]
AC50 [1]: 2.82 µM [falling, single point]

O=C1N=C(N2CCOCC2)S/C1=C/c1cc2c(cc1[N+](=O)[O-])OCO2
cell number change: 0.0261%
AC50 [1]: 0.146 µM [rising, partial curve, poor fit]

CCc1ccc(NC(=O)CSc2nnc(-c3ccccn3)n2C)cc1
cell number change: 5.91%
AC50 [1]: 4.61 µM [rising, partial curve]

CCOC(=O)c1[nH]c2ccc(Br)cc2c1NC(=O)CCN1CCN(C(=O)OCC)CC1
cell number change: -23.3%
AC50 [1]: 0.651 µM [falling, single point]

CCOC(=O)C1(CCCc2ccccc2)CCN(C(=O)COC)CC1
cell number change: 15.7%
AC50 [1]: 2.59 µM [rising, full curve, poor fit]

CCN(Cc1nc(-c2cccc(C)c2)no1)C(=O)c1ccco1
cell number change: 35.7%
AC50 [2]: 5.17 µM [rising, full curve, poor fit]
AC50 [1]: 29.1 µM [rising, partial curve]

O=C(CCCn1cnc([N+](=O)[O-])n1)Nc1cccc(Cl)c1Cl
cell number change: 9.15%
AC50 [1]: 29.1 µM [rising, single point]
